These are yes or no findings as the source states them, for the method shown.
Tests used:
Experiment in all cases: competitive MHC II binding assay; number of alleles bound
[1] = molecular target: DRB5_0101 (human) (UniProt P01903)
[2] = molecular target: HLA-DQA10101-DQB10501 (human)
[3] = molecular target: HLA-DQA10501-DQB10301 (human)
[4] = molecular target: HLA-DPA10103-DPB10401 (human)
[5] = molecular target: DRB4_0101 (human) (UniProt P01903)
[6] = molecular target: DRB1_0401 (human) (UniProt P01903)
[7] = molecular target: HLA-DQA10301-DQB10302 (human)
[8] = molecular target: HLA-DPA10202-DPB10501 (human)
[9] = molecular target: DRB1_0405 (human) (UniProt P01903)
[10] = molecular target: HLA-DPA10201-DPB10101 (human)
[11] = molecular target: HLA-DQA10102-DQB10602 (human)
[12] = molecular target: HLA-DPA10201-DPB11401 (human)
[13] = molecular target: HLA-DQA10501-DQB10201 (human)
[14] = molecular target: HLA-DPA10103-DPB10201 (human)
[15] = molecular target: DRB1_1201 (human) (UniProt P01903)
[16] = molecular target: DRB1_1101 (human) (UniProt P01903)
[17] = molecular target: DRB3_0202 (human) (UniProt P01903)
[18] = molecular target: DRB1_0301 (human) (UniProt P01903)
[19] = molecular target: DRB1_0701 (human) (UniProt P01903)
[20] = molecular target: DRB1_0101 (human) (UniProt P01903)
[21] = molecular target: HLA-DQA10401-DQB10402 (human)
[22] = molecular target: HLA-DPA10103-DPB10402 (human)
[23] = molecular target: DRB1_0901 (human) (UniProt P01903)
[24] = molecular target: DRB1_1501 (human) (UniProt P01903)
[25] = molecular target: HLA-DPA10103-DPB10301 (human)
[26] = molecular target: DRB1_1302 (human) (UniProt P01903)
[27] = molecular target: DRB3_0101 (human) (UniProt P01903)
[28] = molecular target: DRB1_0802 (human) (UniProt P01903)

Chains of the proteins cited; added tags and fusions are not shown. Lines headed by an entry give the natural chain unless they say otherwise; changes in a name come on top.
UniProt P01903: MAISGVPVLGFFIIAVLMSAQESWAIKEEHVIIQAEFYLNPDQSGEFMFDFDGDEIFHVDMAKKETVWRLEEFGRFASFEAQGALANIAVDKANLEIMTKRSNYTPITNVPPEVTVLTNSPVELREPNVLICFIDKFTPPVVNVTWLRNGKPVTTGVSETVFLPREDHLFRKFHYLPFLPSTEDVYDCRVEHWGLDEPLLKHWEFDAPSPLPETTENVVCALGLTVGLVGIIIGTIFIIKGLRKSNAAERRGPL

binding [1]: no binding (tested: IC50 cutoff 1000 nM) | binding [2]: no binding (tested: IC50 cutoff 1000 nM) | binding [3]: no binding (tested: IC50 cutoff 1000 nM) | binding [4]: no binding (tested: IC50 cutoff 1000 nM) | binding [5]: no binding (tested: IC50 cutoff 1000 nM) | binding [6]: no binding (tested: IC50 cutoff 1000 nM) | binding [7]: no binding (tested: IC50 cutoff 1000 nM) | binding [8]: no binding (tested: IC50 cutoff 1000 nM) | binding [9]: no binding (tested: IC50 cutoff 1000 nM) | binding [10]: no binding (tested: IC50 cutoff 1000 nM) | binding [11]: no binding (tested: IC50 cutoff 1000 nM) | binding [12]: no binding (tested: IC50 cutoff 1000 nM) | binding [13]: no binding (tested: IC50 cutoff 1000 nM) | binding [14]: no binding (tested: IC50 cutoff 1000 nM) | binding [15]: no binding (tested: IC50 cutoff 1000 nM) | binding [16]: no binding (tested: IC50 cutoff 1000 nM) | binding [17]: no binding (tested: IC50 cutoff 1000 nM) | binding [18]: no binding (tested: IC50 cutoff 1000 nM) | binding [19]: no binding (tested: IC50 cutoff 1000 nM) | binding [20]: no binding (tested: IC50 cutoff 1000 nM) | binding [21]: no binding (tested: IC50 cutoff 1000 nM) | binding [22]: no binding (tested: IC50 cutoff 1000 nM) | binding [23]: no binding (tested: IC50 cutoff 1000 nM) | binding [24]: no binding (tested: IC50 cutoff 1000 nM) | binding [25]: no binding (tested: IC50 cutoff 1000 nM) | binding [26]: no binding (tested: IC50 cutoff 1000 nM) | binding [27]: no binding (tested: IC50 cutoff 1000 nM) | binding [28]: no binding (tested: IC50 cutoff 1000 nM)
Binder: ELVDSASQHG [HDM03W]

— patent publication US20160251403A1, “PEPTIDE COMBINATIONS AND USES THEREOF IN TREATING DUST MITE ALLERGY” (ALK-ABELLO A/S, priority 2013, published 2016)
